From article PMC8228600 (Pharmaceuticals, 2021)

Experiments:
[1] = general procedure: Fmoc solid-phase peptide synthesis; rink amide resin AM LL; 2-Chlorotrityl chloride resin; HBTU/DIPEA; PyBOP/DIPEA for cyclization
[2] = general procedure: Fmoc solid-phase peptide synthesis; 2-Chlorotrityl chloride resin; HBTU/DIPEA; PyBOP/DIPEA for cyclization; settings: whole synthesis, scale 200 μmol
[3] = general procedure: Fmoc solid-phase peptide synthesis; rink amide resin AM LL; HBTU/DIPEA; PyBOP/DIPEA for cyclization; settings: whole synthesis; for isolated yield: overall
[4] = whole synthesis, scale of the general procedure 25-200 μmol

Substance	conjugation yield ([1]; conjugation step) [%]	final purity (method not given) ([1]; conjugation step) [%]	also measured
SiFAlin-APG-PEG8-c(RGDfK)/GG-Nle-c(DHfRWK)	58	>99	
SiFAlin-APG-DIG-c(RGDfK)	46	>97	
NHS-PEG1-GG-Nle-c(DHfRWK)	43	>93	
HO-DIG-GG-Nle-c(DHfRWK)	61	>99	
c(RGDfK)-EGEGE			isolated yield ([2]; overall): 41%; isolated mass [2]: 90.4 mg; final purity (method not given) [1, 4]: >99%
NHS-PEG8-c(RGDfK)	32	>82	
EGEGE-GG-Nle-c(DHfRWK)			isolated yield ([3]; scale 125 μmol): 43%; isolated mass ([3]; scale 125 μmol): 85.2 mg; final purity (method not given) [1, 4]: >88%
GG-Nle-c(DHfRWK)			isolated yield ([3]; scale 25 μmol): 42%; isolated mass ([3]; scale 25 μmol): 11.5 mg; final purity (method not given) [1, 4]: >99%
SiFAlin-APG-PEG3-c(RGDfK)	67	>96	
SiFAlin-APG-Ox-EGEGE-c(RGDfK)	58	>98	
SiFAlin-APG-PEG5-c(RGDfK)/GG-Nle-c(DHfRWK)	49	>99	
NHS-PEG5-GG-Nle-c(DHfRWK)	42	>90	
NHS-PEG3-GG-Nle-c(DHfRWK)	49	>91	
NHS-PEG5-c(RGDfK)	35	>91	
NHS-PEG3-c(RGDfK)	29	>89	
HO-Ox-EGEGE-GG-Nle-c(DHfRWK)	44	>99	
SiFAlin-APG-PEG8-c(RGDfK)	49	>99	
HO-Ox-EGEGE-c(RGDfK)	40	>99	
HO-DIG-c(RGDfK)	37	>99	
NHS-PEG8-GG-Nle-c(DHfRWK)	42	>90	
SiFAlin-APG-PEG3-c(RGDfK)/GG-Nle-c(DHfRWK)	66	>99	
NHS-PEG1-c(RGDfK)	41	>93	
SiFAlin-APG-PEG1-c(RGDfK)/GG-Nle-c(DHfRWK)	77	>99	
SiFAlin-APG-PEG5-c(RGDfK)	41	>99	
SiFAlin-APG-PEG1-c(RGDfK)	60	>96	
